Measurements as given in PMC9886892, “Imidazolium salts as an alternative for anti-Leishmania drugs: Oxidative and immunomodulatory activities” (Frontiers in Immunology, 2023).

What was measured:
[1] = test system: L. infantum chagasi promastigotes; assay: microbe, parasite or virus in culture; details: Leishmania infantum, 48 h, read-out: IC50 (CI 95%): concentration of compound that causes 50% of L. infantum chagasi promastigotes mortality
[2] = test system: L. amazonensis promastigotes
[3] = test system: Macrophages RAW 264.7 cell line
in vitro = details: mouse
human erythrocytes = test system: human erythrocytes
Protocol: Triton X-100 1% was used as positive control. The hemolytic assay was performed according to the procedure used by ([13]). […] The microplate was incubated at 37°C under agitation (90 rpm) for 60 min. Then, the suspension was centrifuged at 3,000 rpm for 5 min, and the absorbance of the supernatant was measured at 540 nm using a spectrophotometer EZ Read 400 from Biochrom. Triton X-100 1% and PBS were used as positive and negative control, respectively. […] The selectivity index (SI) (CC50 or RBC50/IC50 against L. amazonensis) were determined for each compound.

[4] = test system: L. amazonensis amastigotes in RAW 264.7 macrophages; assay: Intramacrophage anti-amastigote activity; assay type: cell-based; details: Leishmania amazonensis, RAW264.7, 48 h, read-out: IC50 (CI 95%): concentration of compound that causes 50% of L. amazonensis amastigotes mortality
Protocol: The anti-amastigote assay was performed as previously described ([13]). Macrophages RAW 264.7 cell line (ATCC) were cultured in DMEM plus 10% fetal bovine serum (FBS), penicillin (100 U/mL) and streptomycin (100 µg/mL) until reaching 90% confluence, when were distributed into 96-well microplates at a concentration of 2 x 10^5 cells/well in the presence of DMEM. […] The leishmanicidal activity of macrophages was assessed by determining the number of viable parasites (4 replicates) using a hemocytometer.

CCCCCCCCCCCCCCCC[n+]1ccccc1.O.[Cl-] [C16PyrCl, 1-hexadecylpyridinium chloride monohydrate, reference compound]
IC50 [1]: 2600 nM
IC50 [2]: 4 µM
concentration causing significant parasite mortality [2]: ≥ 5 µM
SI: selectivity index, ratio of CC50 for macrophage/IC50 for L. amazonensis amastigotes [3]: 31.5
SI: selectivity index, ratio of CC50 for macrophage/IC50 for L. amazonensis promastigotes [3]: 1.6
CC50 (in vitro): 6.3 µM
SI: selectivity index, ratio of CC50 for RBC hemolysis/IC50 for L. amazonensis amastigotes (human erythrocytes): 107
SI: selectivity index, ratio of CC50 for RBC hemolysis/IC50 for L. amazonensis promastigotes (human erythrocytes): 5.3
RBC50 (CI 95%): concentration of compound that causes 50% of red blood cell hemolysis (human erythrocytes; human): 21.3 (19.2-23.7) µM
IC50 [4]: 200 nM
